# PubChem BioAssay AID504467 (National Center for Advancing Translational Sciences (NCATS), 2011)
# Screen size: about 330,000 compounds; about 7,700 (2.3%) were called active. Inconclusive means that the source gave no clear call. Such entries were picked first, then a sample of the others. The call rests on the fitted dose curve; in most records, active means well fitted inhibition curve with a large enough effect; inconclusive means small, poorly fitted or top-dose-only effect, or effect the other way; inactive means flat fitted curve, though single readings scatter. Where the call is inconclusive, the potency comes from a doubtful curve fit.
# Experiment: qHTS screen for small molecules that inhibit ELG1-dependent DNA repair in human embryonic kidney (HEK293T) cells expressing luciferase-tagged ELG1; further: nearly all actives have a fitted effect of over 55% in size
# Settings: HEK293T ELG1-luciferase reporter, luminescence, 16 h, DNA damage induced by 5-fluorouridine; series mostly up to 46.1 µM
# In short: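 Step one: seed 2,000 cells per well. Step two: pin-transfer compound or DMSO alongside 5-fluorouridine. Step three: incubate 16 hr, 37 °C, 5% CO2. Step four: add ONE-Glo, wait 30 min, read luminescence.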
# Potency means the concentration at half of the fitted maximal effect.
row,Structure (SMILES),Potency
1,CC(C)(C)NS(=O)(=O)c1ccc(OCC(=O)N2CCN(Cc3ccccc3)CC2)cc1,inactive
2,CCCCNC(=O)c1c(N)n(CCCOC)c2nc3ccccc3nc12,"inconclusive: 9.2 µM [inhibitor, single point]"
3,Cc1cnc(-n2c(=S)[nH]c3ccccc3c2=O)s1,"inconclusive: 25.9 µM [activator, single point]"
4,Cc1ccccc1-n1c(C)cc(/C=C2/C(=O)NC(=O)N(Cc3ccco3)C2=O)c1C,inactive
5,O=c1[nH]c(=S)[nH]c(O)c1N=Nc1ccc2c(c1)OCCO2,"inconclusive: 2.91 µM [activator, full curve]"
6,COc1cc(C(O)P(=O)(OC2CCCCC2)c2ccc(N(C)C)cc2)cc(OC)c1OC (configuration not stated),"inconclusive: 11.2 µM [activator, partial curve, poor fit]"
7,CCOc1cc(CNC(C)C(O)c2ccccc2)cc(Cl)c1OCC (configuration not stated),"inconclusive: 23.1 µM [inhibitor, single point]"
8,CN(C)c1ccc(C(O)P(=O)(OC2CCCCC2)OC2CCCCC2)cc1 (configuration not stated),"inconclusive: 32.6 µM [inhibitor, partial curve, poor fit]"
9,C#C[C@]1(O)[C@H](O)CC2C3CC[C@H]4C[C@@H](O)CC[C@]4(C)C3CC[C@@]21C (some centres not stated),"inconclusive: 29.1 µM [activator, partial curve, poor fit]"
10,Cn1nnc2cc(NC(=O)Nc3cccc(Cl)c3)ccc21,"inconclusive: 4.11 µM [activator, partial curve]"
11,c1ccc(C(OCCN2CCNCC2)c2ccccc2)cc1,inactive
12,Cn1c(=O)cc(OCC(=O)N2CCC3(CC2)OCCO3)c2ccccc21,"inconclusive: 18.4 µM [activator, single point]"
13,Cc1ccc(-n2c(O)c(/C=C3/C(c4ccccc4)=Nc4ccccc43)c(=O)[nH]c2=O)cc1,"inconclusive: 2.31 µM [inhibitor, partial curve, poor fit]"
14,O=C1CN=C(c2cccc(Br)c2)c2cc(Br)ccc2N1,"inconclusive: 25.9 µM [inhibitor, partial curve, poor fit]"
15,CN1[C@H]2CC[C@@H]1C(C(=O)N1CCOCC1)=C(O)C2,"inconclusive: 23.1 µM [activator, single point]"
16,Cc1c(C(=O)Nc2ccccc2)cc(-c2ccccc2)n1CCCN1CCOCC1,inactive
17,Cc1cc(OC(C)C(=O)NCC(O)c2ccccc2)c2c3c(c(=O)oc2c1)CCCC3 (configuration not stated),"inconclusive: 11.6 µM [inhibitor, partial curve, poor fit]"
18,Cc1cc(OCC(=O)N2C[C@H]3C[C@@H](C2)c2cccc(=O)n2C3)c2c(C)c(C)c(=O)oc2c1,"inconclusive: 29.1 µM [activator, single point]"
19,CC(C)(O)C(=O)Nc1ccc([N+](=O)[O-])c(C(F)(F)F)c1,inactive
20,COC(=O)C(O)(c1ccc(NC(=O)c2cccs2)cc1)C(F)(F)F (configuration not stated),"inconclusive: 20.6 µM [activator, partial curve]"
21,CC(C(=O)c1c[nH]c2ccccc12)N1CCN(C(=O)c2ccco2)CC1 (configuration not stated),"inconclusive: 8.2 µM [inhibitor, partial curve, poor fit]"
22,Cc1ccccc1N1C(=O)CC(=O)N(c2ccccc2C)C1=O,inactive
23,O=C(N/N=C/c1cccc([N+](=O)[O-])c1)c1cnccn1,"inconclusive: 11.6 µM [activator, partial curve]"

# Random excerpt: two compounds from above.
row,Structure (SMILES),Potency
22,Cc1ccccc1N1C(=O)CC(=O)N(c2ccccc2C)C1=O,inactive
15,CN1[C@H]2CC[C@@H]1C(C(=O)N1CCOCC1)=C(O)C2,"inconclusive: 23.1 µM [activator, single point]"

# Additional results follow:

row,Structure (SMILES),Potency
1,Oc1ccc(/C=N/NP(=S)(c2ccccc2)c2ccccc2)c(O)c1O,inactive
2,O=c1ccc2c(O)c3ccoc3cc2o1,"inconclusive: 23.1 µM [activator, partial curve, poor fit]"
3,CCN(CC)CCCC(C)N=C(c1ccccc1)c1c(O)n(C)c(=O)n(C)c1=O (configuration not stated),inactive
4,Cc1ccc(N2C(=O)NC(=O)/C(=C\c3ccsc3)C2=O)cc1C,"inconclusive: 20.6 µM [activator, single point]"
5,O=C(c1cc2c(s1)-c1ccccc1OC2)N1CCC2(CC1)OCCO2,"inconclusive: 5.8 µM [activator, partial curve]"
6,C=CCn1c(O)c(N=Nc2c(C)n(C)n(-c3ccccc3)c2=O)c(=O)[nH]c1=S,inactive
7,COC(=O)C1=C(c2ccc3ccccc3c2)C[C@@H]2CC[C@H]1N2C(=O)NC1CC1,inactive
8,O=P(O)(O)Cc1ccccc1OP(=O)(c1ccccc1)c1ccccc1,inactive
9,C/C(=N\NC(=O)c1ccccc1)c1c(O)n(Cc2ccccc2)c(=O)[nH]c1=O,"inconclusive: 23.1 µM [activator, single point]"
10,Cc1ccsc1C(=O)C1CCCN(Cc2cnc(N3CCOCC3)s2)C1 (configuration not stated),"inconclusive: 14.6 µM [inhibitor, partial curve, poor fit]"
11,O=c1c2ccccc2nc(/C=C/c2ccco2)n1-c1ccccc1O,"inconclusive: 25.9 µM [inhibitor, single point]"
12,Cc1ccsc1C(=O)C1CCCN(Cc2sc(N(C)C)nc2Cl)C1 (configuration not stated),"inconclusive: 29.1 µM [inhibitor, single point]"
13,COc1ccc(NC(c2ccccc2)P(=O)(Oc2ccccc2)Oc2ccccc2)cc1 (configuration not stated),"inconclusive: 20.6 µM [inhibitor, single point]"
14,O=C(Cc1ccccc1)N1CCN(Cc2c[nH]c3ccccc23)CC1,"inconclusive: 4.61 µM [inhibitor, partial curve, poor fit]"
15,O=[N+]([O-])c1ccc(N2CCNCC2)c(Cl)c1,inactive
16,O=C(/C=C/c1ccccc1)c1c(O)n(CCc2ccccc2)c(=O)[nH]c1=O,"inconclusive: 29.1 µM [inhibitor, single point]"
17,CCC(=O)N1N=C(c2c(O)n(CCc3ccccc3)c(=O)[nH]c2=O)CC1c1ccc(OC)c(OC)c1 (configuration not stated),"inconclusive: 18.3 µM [inhibitor, partial curve, poor fit]"
18,CSc1nc2ccccc2c(=O)n1-c1cccnc1,inactive
19,CC(C)C(=O)Nc1nnc(CCN(CCc2nnc(NC(=O)C(C)C)s2)[N+](=O)[O-])s1,"inconclusive: 23.1 µM [inhibitor, single point]"
20,Cc1ccc(S(=O)(=O)N2CCCC(C(=O)N3CCC4(CC3)OCCO4)C2)cc1 (configuration not stated),"inconclusive: 20.6 µM [inhibitor, partial curve]"
21,CC(=NCc1ccc2c(c1)OCO2)c1c(O)n(Cc2ccccc2)c(=O)[nH]c1=O,"inconclusive: 23.1 µM [inhibitor, single point]"
22,CCN(CC)C(=O)c1ccc(NC(=O)C2=C(C)OCCS2)cc1,"inconclusive: 2.59 µM [activator, full curve]"
23,CCCCCP(=O)(O)c1ccccc1,inactive

# Some of these compounds in order of molecular weight, low to high:
row,Structure (SMILES),Potency
23,CCCCCP(=O)(O)c1ccccc1,inactive
11,O=c1c2ccccc2nc(/C=C/c2ccco2)n1-c1ccccc1O,"inconclusive: 25.9 µM [inhibitor, single point]"
3,CCN(CC)CCCC(C)N=C(c1ccccc1)c1c(O)n(C)c(=O)n(C)c1=O (configuration not stated),inactive

# The results go on:

row,Structure (SMILES),Potency
1,CCNC(=O)O/N=C(\C)c1sc(-c2ccc(Cl)cc2)nc1C,"inconclusive: 2.91 µM [activator, partial curve]"
2,Clc1ccc(Cn2ccnc2)cn1,inactive
3,C[C@]12CCC(=O)C[C@H]1CC[C@@H]1[C@@H]2CC[C@]2(C)C(=O)CC[C@@H]12,"inconclusive: 29.1 µM [inhibitor, single point]"
4,Cc1cccc(CN2CCN(Cc3ccc(Cl)cc3)CC2)c1,"inconclusive: 13 µM [inhibitor, partial curve, poor fit]"
5,Cc1cc(OC(C)C(=O)NCc2ccncc2)c2c3c(c(=O)oc2c1)CCCC3 (configuration not stated),inactive
6,CC(C)Nc1ccc(Nc2ccccc2)cc1,"inconclusive: 18.3 µM [activator, partial curve, poor fit]"
7,COC(=O)C1=C(c2ccc(F)cc2OCc2ccccc2)C[C@@H]2CC[C@H]1N2C(=O)NC1CCN(Cc2ccccc2)CC1,inactive
8,Cc1c(N=Cc2c(O)n(CCc3ccc(F)cc3)c(=O)[nH]c2=O)c(=O)n(-c2ccccc2)n1C,"inconclusive: 20.6 µM [inhibitor, partial curve, poor fit]"
9,O=S(=O)(c1ccc(Cl)cc1)N1CCCC1c1cccnc1 (configuration not stated),inactive
10,CCCCC(=O)N/N=C/c1c(O)n(CCc2ccc(OC)c(OC)c2)c(=O)[nH]c1=O,inactive
11,COC(=O)C1=C(c2c(C)noc2C)C[C@@H]2CC[C@H]1N2C(=O)NCCOc1ccccc1Cl,"inconclusive: 0.092 µM [activator, partial curve, poor fit]"
12,O=S(=O)(c1ccc(Cl)cc1Cl)N1CCCC1c1cccnc1 (configuration not stated),"inconclusive: 16.4 µM [inhibitor, partial curve]"
13,COc1cc(/C=C/c2nc3ccccc3c(=O)n2-c2cccc(O)c2)ccc1O,"inconclusive: 20.6 µM [inhibitor, single point]"
14,O=C(CC1CCCCC1)N1CCC(c2nc(-c3ccc(S(=O)(=O)N4CCCC4)cc3)no2)CC1,"inconclusive: 29.1 µM [inhibitor, single point]"
15,CC(=O)OC1CCC2(/C=N/O)C(=CCC3C4CCC(=O)C4(C)CCC32)C1 (configuration not stated),inactive
16,Cc1nc2ccccc2c(=O)n1-c1ccc(-c2ccccc2)cc1,"inconclusive: 23.1 µM [inhibitor, single point]"
17,CN(C)C(=O)Oc1ccc2c(c1)O/C(=C\c1cccc(Cl)c1)C2=O,"inconclusive: 14.6 µM [activator, partial curve]"
18,FC(F)(F)c1ccc(CNCCc2c[nH]c3ccccc23)cc1,inactive
19,Cc1ccc(-c2nc3ccc(Cl)cc3n2OC(=O)N(C)C)cc1,"inconclusive: 2.59 µM [activator, full curve]"
20,C=CCn1c(O)c(C(C)=NCc2ccco2)c(=O)[nH]c1=O,"inconclusive: 20.6 µM [activator, single point]"
21,COC(=O)C1C=C2c3cccc4[nH]cc(c34)CC2N(C)C1 (configuration not stated),"inconclusive: 1.83 µM [inhibitor, full curve]"
